This is an account of results in PubChem BioAssay AID493014 (National Center for Advancing Translational Sciences (NCATS), 2011).

Some of the results follow. These are further read-outs of the screen, such as a control signal, another cell line or another target. No call is given for them. Compounds called inactive in the main read-out are mostly missing here. Potencies come from curve fits of mixed quality, noted in brackets.

The experiment in a line: qHTS Assay to Find Inhibitors of Chronic Active B-Cell Receptor Signaling. To be noted: ABC-DLBCL IkBa-CBG/CBR reporter, luminescence ratio (green luciferase fused to IkBa over red control in TMD8 lymphoma cells), 4 h; measured here: CBR red luminescence, cell number. Put shortly: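 Doxycycline induced both beetle luciferases in TMD8 lymphoma cells; IKK-driven degradation limits the IkappaBalpha-fused green signal, while red luminescence normalises for cell number and nonspecific effects. Compounds tested up to 46 uM, 4 hrs.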
A general note: Quantitative high-throughput screening tests each substance at several concentrations.
As a reminder, the AC50 is the midpoint of the concentration-response curve, whichever way the signal moves. As for `CCOC(=O)C1(Cc2ccccc2C(F)(F)F)CCN(C(C)COC)CC1` (stereo not drawn), the AC50 was 0.447 µM [rising, full curve].

As for `CC(C)c1cc(C(=O)NNC(=S)NCc2ccco2)c(O)c(C(C)C)c1`, the AC50 is 29.1 µM [falling, single point].

As for `CCCCN(C)CCn1c(=S)[nH]c2cc(OCC)c(OCC)cc2c1=O`, the AC50 is 35.5 µM [rising, single point].

`Cn1c(=O)c2c(ncn2CC(=O)OCC(=O)NNC(=O)c2ccc(Cl)cc2)n(C)c1=O`: the AC50 is 16.4 µM [rising, partial curve, poor fit].

For `Cn1c2c(c(=O)n(C)c1=O)[C@@]1(C(=O)Nc3ccccc31)C(C#N)=C(N)O2`, the AC50 is 29.1 µM [falling, single point].

Consider `COc1ccc(-c2nn(-c3ccccc3)cc2/C=C2/SC(=S)N(Cc3ccco3)C2=O)c(C)c1`, for which the AC50 is 17.8 µM [rising, partial curve, poor fit].

Take `CN(C)c1ccc(-n2cccc2)cc1`: the AC50 is 3.16 µM [falling, partial curve, poor fit].

As for `CCN(CC)c1nc2c(s1)C(=O)NCCC2`, the AC50 was 2.82 µM [rising, partial curve, poor fit].

Take `N/C(=N\NC(=O)c1ccccc1Cl)c1cc2ccccc2oc1=O`: the AC50 is 3.98 µM [falling, full curve].

Regarding `CC1(C)CC(=O)C2=C(C1)N1CCCCC1CC2=O` (stereo not drawn), the concentration at half-maximal activity (AC50) is 3.16 µM [falling, partial curve, poor fit].

With `C=CCNC(=O)c1ccccc1NC(=O)COc1ccc(OC)cc1`, the AC50 was 35.5 µM [falling, single point].

As for `CCNC(=O)COc1ccc(OCc2ccccc2)cc1`, the AC50 was 0.282 µM [rising, full curve, poor fit].

As for `O=C(CCCN1C(=O)/C(=C\c2cccs2)SC1=S)Nc1ccc(O)cc1C(=O)O`, the concentration at half-maximal activity (AC50) was 0.891 µM [falling, full curve].

Take `CS(=O)(=O)c1ccc2nc(NC(=O)c3ccccc3Br)sc2c1`: the AC50 was 22.4 µM [falling, single point].

Take `CCn1c2ccccc2c2cc(NC(=O)CSc3nnc(-c4cccc(OC)c4)n3N)ccc21`: the AC50 is 3.66 µM [falling, partial curve, poor fit].

On to `COc1ccc(S(=O)(=O)NCC2CCCN(C(=O)c3occc3C)C2)cc1` (stereo not drawn), for which the AC50 is 0.708 µM [rising, partial curve, poor fit].

As for `CCN(CC)CCNc1cc(C)c(C#N)c2nc3ccccc3n12`, the AC50 is 15.8 µM [falling, partial curve, poor fit].

Take `CC(C(=O)Nc1ccc([N+](=O)[O-])cc1)N1CCN(C/C=C/c2ccccc2)CC1` (stereo not drawn): the AC50 is 11.6 µM [falling, partial curve, poor fit].
